{"source": "paper PMC9501356", "about": "“New Sulfamethoxazole Derivatives as Selective Carbonic Anhydrase IX and XII Inhibitors: Design, Synthesis, Cytotoxic Activity and Molecular Modeling” (Pharmaceuticals, 2022)", "key": {"in vitro": {"experiment": "in vitro", "conditions": "human"}, "MCF7 cells": {"system": "MCF7 cells", "experiment": "MTT cytotoxicity assay on MCF7 (hypoxia and normoxia)", "assay_type": "cell-based", "conditions": "Homo sapiens", "procedure": "was measured at 405nM. […]\nCarbonic Anhydrase (CA) catalyzes the reversible reaction of CO2 + […]\nH2O = HCO3- + H+. […]\n= HCO3- + H+. […]\n96 well plate. Substrate blank […]\nS2.2.6. Cell culture Protocol\nCulture Collection, the cultured cells were grown using DMEM […]\ninsulin (Sigma), and 1% penicillin-streptomycin antibiotics. Other chemicals […]\nS2.2.7. MTT – Cytotoxicity assay protocol […]\nwith the original culture medium. Absorbance was measured spectrophotometrically at 570 nm wavelength using microplate reader (Bio-Rad, Molecular Devices, CA, USA).\nS2.2.8. Annexin V-FITC Assay for apoptosis\nBank (http://www.rcsb.org). The co-crystallized ligands were extracted from […]\ndocked compounds were energy minimized and rotatable bonds were adjusted and then, they were saved as PDBQT files. The Swiss-PdbViewer […]\nmissing atoms and energy minimization. Then, the polar hydrogens and […]\nusing python embedded with AutoDock Vina. Thereafter, the affinity maps […]\nprocess started using the specialized AutoDock4Zn forcefield. The exhaustiveness was adjusted to 32. The settings of the two grid boxes were […]\nthe co-crystallized ligand. The hCA-IX box was centered toward the […]"}}, "note": "Like-named read-outs stand apart in the source and are kept apart here.", "data": [{"smiles": "CN[C@@H]1C[C@H]2O[C@@](C)([C@@H]1OC)n1c3ccccc3c3c4c(c5c6ccccc6n2c5c31)C(=O)NC4", "note": "[Staurosporine, reference compound]", "values": [{"measurement": "IC50", "setting": "in vitro", "result": "23.6 ± 1.27", "unit": "µg/mL"}, {"measurement": "IC50", "setting": "MCF7 cells; MCF7, hypoxia, read-out: Cytotoxicity (IC50 µg/mL) MCF7 Hypoxia", "result": "1.63 ± 0.09", "unit": "µg/mL"}, {"measurement": "IC50", "setting": "MCF7 cells; MCF7, normoxia, read-out: Cytotoxicity (IC50 µg/mL) MCF7 Normoxia", "result": "4.78 ± 0.26", "unit": "µg/mL"}]}]}
